Primary screen of a compound library

Protein sequences, listed by entry. Tags and fused reporters are not part of them.
UniProt E9BF75, entry or part of it: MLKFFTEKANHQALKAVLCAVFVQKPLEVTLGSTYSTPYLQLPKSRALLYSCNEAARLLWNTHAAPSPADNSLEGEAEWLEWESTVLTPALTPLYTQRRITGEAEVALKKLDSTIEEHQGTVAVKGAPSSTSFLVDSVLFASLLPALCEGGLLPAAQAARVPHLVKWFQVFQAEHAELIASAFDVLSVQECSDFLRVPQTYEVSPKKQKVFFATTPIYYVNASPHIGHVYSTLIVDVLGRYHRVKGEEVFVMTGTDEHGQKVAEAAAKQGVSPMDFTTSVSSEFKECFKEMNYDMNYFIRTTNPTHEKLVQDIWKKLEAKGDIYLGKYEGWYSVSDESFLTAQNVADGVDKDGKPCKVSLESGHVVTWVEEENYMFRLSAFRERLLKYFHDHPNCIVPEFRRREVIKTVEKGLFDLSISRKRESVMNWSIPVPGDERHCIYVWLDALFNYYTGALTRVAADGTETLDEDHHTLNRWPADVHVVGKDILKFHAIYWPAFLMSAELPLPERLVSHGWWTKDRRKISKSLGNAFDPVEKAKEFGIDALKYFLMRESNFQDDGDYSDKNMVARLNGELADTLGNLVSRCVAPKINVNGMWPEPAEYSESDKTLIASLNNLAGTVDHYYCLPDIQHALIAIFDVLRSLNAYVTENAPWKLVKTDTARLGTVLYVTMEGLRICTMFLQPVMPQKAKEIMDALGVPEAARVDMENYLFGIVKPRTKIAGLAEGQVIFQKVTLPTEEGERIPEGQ

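Methionyl-tRNA synthetase (putative), Leishmania donovani (UniProt E9BF75). Primary screen of methionyl-tRNA synthetase; the read-out is not stated. The test concentration is not given. The values are filed as inhibition. About 68,000 compounds were tested under these conditions; 0.035% (about 24) showed 50% or more at least once.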

Results are percentages, as filed. How 0% and 100% were set is not recorded. Most values in the screen are low, and negative values occur. The compounds are a random part of those screened.

| SMILES | inhibition |
|---|---|
| `Cc1cccc(S(=O)(=O)NC(=O)CN(C)Cc2ccccc2)c1` | 10.05 |
| `CCOCC1CN(C(=O)c2cnoc2C)Cc2cnn(C)c21` (stereo not given) | 7.397 |
| `CCS(=O)(=O)N1CCC2(CC(=O)N(c3cnn(C)c3)C2)C1` (stereo not given) | 5.537 |
| `O=C(CCn1cccn1)N1CC[C@@H](c2ccc3ccccc3c2)[C@H](O)C1` | 6.849 |
| `Cc1cc(NCc2csc(-c3ccsc3)n2)no1` | 6.72 |
| `O=C(c1cnccn1)N1CCC2(CC1)CC(Oc1ccccc1)CO2` (stereo not given) | 0.625 |
| `Cc1nc(C)n(CC(C)C(=O)N2CCC(NS(C)(=O)=O)CC2)n1` (stereo not given) | 1.961 |
| `NCC1CN(c2nc(-c3ccccc3)nc3c2CCNCC3)CCO1` (stereo not given) | 23.5 |
| `CCn1c(C2CCN(C(=O)c3cc(C4CC4)on3)CC2)nn(C)c1=O` | 20.72 |
| `O=C(N1CCOCC1)[C@@]12CCO[C@@H]1CCN(CCN1CCCCC1)C2` | 12.03 |
| `NC(=O)[C@@H]1Cc2ccccc2CN1CCc1cccs1` | 9.524 |
| `Cc1nc(CNC2CCN(Cc3ccccc3)C2)sc1C` (stereo not given) | 21.11 |
| `O=C(N[C@@H]1CN(c2ncccn2)C[C@@H]2CCCO[C@@H]21)c1ccncc1` | 10.37 |
| `Cn1c(Cn2ccnc2)nnc1C1CCN(C(=O)c2cccnc2)CC1` | 11.66 |
| `CCc1cnc(NCC(C)Oc2cccnc2)nc1` (stereo not given) | 3.911 |
| `CN(Cc1nnc2n1CCC2)C(=O)CCc1ccc2c(c1)OCO2` | 17.48 |
| `Cc1nc(CN2CCO[C@H]3CN(C(=O)Cc4cccs4)C[C@H]32)cs1` | 8.904 |
| `Cc1n[nH]c(C)c1CNc1nc(-c2ccco2)nc2c1CCNCC2` | 16.54 |
| `CC(C)NC(=O)N1CCCn2cnc(CO)c2C1` | 20.86 |
| `Cn1ccc(-c2cc(C(=O)N3CCC(C(N)=O)CC3)c3ccccn23)n1` | -27.39 |
| `CCOCC1CN(Cc2csc(C)n2)Cc2nccn2C1` (stereo not given) | -1.504 |
| `Fc1ccc(CN2CCCC3(COCCN(Cc4c[nH]nn4)C3)C2)cc1` (stereo not given) | 8.889 |
| `O=C(NCCCNc1ccccc1)c1scnc1Cl` | 20.98 |
| `CCCc1nc(CN2CCc3c(ncn3C3CC3)C2)cs1` | 13.07 |
| `Cc1nc(C(C)(C)NC(=O)Nc2cccc(C#N)c2)no1` | 5.419 |
| `CC(C)c1noc(C(C)N2CCN(Cc3cccc(C#N)c3)CC2)n1` (stereo not given) | 8.877 |
| `CC(C)c1cc(CN2CCN(c3cccnc3)CC2)n(C)n1` | 6.863 |
| `C1CCC(c2nc3c(c(N4CCN5CCCC5C4)n2)CCNCC3)C1` (stereo not given) | 15.73 |
| `COc1ccc(Cl)cc1NCc1cc(C)on1` | 16.71 |
| `Cc1ccc(-c2nc(CCNC(=O)NC3CCN(C)CC3)co2)cc1` | 18.18 |
| `O=C(c1cc(F)ccc1F)C1CCN(C(=O)c2ccccn2)CC1` | 14.58 |
| `CC(=O)N1CCCC1c1ccnc(Nc2cncnc2)n1` (stereo not given) | 9.061 |
| `CCn1nccc1CNC(=O)NC1CCCCC1` | 0 |
| `Cc1nc(CC2CCN(C(=O)C(c3ccccc3C)N(C)C)CC2)no1` (stereo not given) | 21.14 |
| `CNC(=O)c1cc2c(nc1N(C)C)CCN(c1ncccn1)CC2` | 14.66 |
| `Cc1[nH]c2ccccc2c1CCNc1ncnc2c1CCNCC2` | 25.89 |
| `CC(O)(CCc1ccccc1)CNC(=O)c1ccsc1` (stereo not given) | 5.755 |
| `Cc1ccc(C(=O)N2CCOC(c3ncc(CN(C)C)[nH]3)C2)cc1F` (stereo not given) | 18.73 |
| `OCC1CCCN1c1cc(NCc2ccc(Cl)s2)ncn1` (stereo not given) | 19.44 |
| `Fc1ccc(CN2CCO[C@H]3[C@H](OCC4CC4)CC[C@@H]32)cc1` | 7.113 |
| `CN(C)CCN(C)C[C@@H]1CN(C(=O)NC2CCCC2)C[C@@H]1CO` | 11.67 |
| `COc1cc(C(=O)N(Cc2ccco2)C2CC2)cc2c1OCCO2` | 13.38 |
| `COCC1COCCC12CCN(S(=O)(=O)c1cccnc1)CC2` (stereo not given) | 16.48 |
| `Clc1snnc1CN1CCCC1Cn1cccn1` (stereo not given) | 21.13 |
| `CCN(Cc1ccco1)C(=O)C1=NN(c2ccccc2)C(=O)CN1` | 13.17 |
| `FC(F)(F)c1cccc(OC2CCN(Cc3ncc[nH]3)CC2)c1` | 11.92 |
| `CCC(NC(=O)c1coc(COc2cccc(F)c2F)n1)C(=O)NC` (stereo not given) | 6.863 |
| `CN(C)c1ncccc1CNC(=O)N1CCCC1CN1CCCC1` (stereo not given) | 6.024 |
| `O=C(NCc1cccnc1)c1nc2c(s1)CCCN2c1ncccn1` | 6.767 |
| `O=C(CCc1ccccc1)N1CCC(N2CCNC2=O)CC1` | 11.11 |
| `CCN1CC2(CCC1=O)CCN(Cc1cc(F)ccc1Cl)CC2` | 15.64 |
| `Cc1nnc2n1CCN(C(=O)C(OC1CCCC1)c1ccccc1)C2` (stereo not given) | 8.333 |
| `COCCCN(Cc1ccncc1)c1cc(C)ncn1` | 9.235 |
| `Cc1cccc(CNCc2ccc(NC(=O)NC(C)C)cc2)c1` | 17.49 |

From ChEMBL document CHEMBL3988442, “University of Dundee, Small-Polar-MMV Screening Library” (2021).